Assay results published in publication PMC5640651, “Interfering with the high-affinity interaction between wheat amylase trypsin inhibitor CM3 and toll-like receptor 4: in silico and biosensor-based studies” (Scientific Reports, 2017).
These are yes or no findings as the source states them, for the method shown. Some entries that bind do so weakly or less than the wild type.

Protein sequences, listed by entry. Tags and fused reporters are not part of them. Residues count along the entry.
UniProt O00206, residues 24-631: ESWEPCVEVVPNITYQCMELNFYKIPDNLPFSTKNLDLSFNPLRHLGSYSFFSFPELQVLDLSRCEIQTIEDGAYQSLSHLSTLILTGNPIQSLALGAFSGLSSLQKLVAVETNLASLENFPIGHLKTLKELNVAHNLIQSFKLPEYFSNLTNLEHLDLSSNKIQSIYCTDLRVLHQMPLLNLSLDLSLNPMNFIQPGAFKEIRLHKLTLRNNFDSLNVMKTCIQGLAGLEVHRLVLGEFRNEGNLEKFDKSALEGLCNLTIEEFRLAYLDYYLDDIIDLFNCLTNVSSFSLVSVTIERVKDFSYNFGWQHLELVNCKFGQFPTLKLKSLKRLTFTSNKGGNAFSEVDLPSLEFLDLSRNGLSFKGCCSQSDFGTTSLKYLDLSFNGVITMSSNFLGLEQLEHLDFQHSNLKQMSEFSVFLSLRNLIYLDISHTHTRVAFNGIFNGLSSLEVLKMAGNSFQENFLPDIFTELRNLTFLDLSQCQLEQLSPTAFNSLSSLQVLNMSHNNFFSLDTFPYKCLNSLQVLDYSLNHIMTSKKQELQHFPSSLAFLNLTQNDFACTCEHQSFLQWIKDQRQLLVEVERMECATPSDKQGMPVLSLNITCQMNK

Legend:
[1] = biological target: T1, human toll-like receptor 4, His-tagged (human, UniProt O00206 24-631); experiment: SPR; IAsys plus resonant mirror biosensor; TLR4-His immobilised; pH varied in the range 6-8; data not shown; both purified
T1 construct: toll-like receptor 4, human; called the extracellular domain of TLR4 in the results; described as a 100 kDa protein with isoelectric point 5.88; Coupled covalently to the carboxylate cuvette by EDC/NHS 'via the N-terminus of the poly-His tail'; also called TLR4; TLR4-His; source: pEF-BOS TLR4 plasmid, transfected in HCT-116 cell line (author contributions)

[2] = biological target: T1, human toll-like receptor 4, His-tagged; experiment: SPR; IAsys plus resonant mirror biosensor, competitive binding: immobilised TLR4 pre-saturated with 100 μM peptide, then ATI added; both purified

binding [1]: binds
binding [2]: binds
B1: wheat amylase trypsin inhibitor CM3 (natural protein, UniProt P17314 26-168, looked up)
chain: SGSCVPGVAFRTNLLPHCRDYVLQQTCGTFTPGSKLPEWMTSASIYSPGKPYLAKLYCCQELAEISQQCRCEALRYFIALPVPSQPVDPRSGNVGESGLIDLPGCPREMQWDFVRLLVAPGQCNLATIHNVRYCPAVEQPLWI
notes: also called ATI; wheat ATI CM3
